From ChEMBL document CHEMBL3988442, “University of Dundee, Small-Polar-MMV Screening Library” (2021).

Mtb cholesterol medium: 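Growth of Mycobacterium tuberculosis over 4 days (cholesterol / DPPC medium with tyloxapol); the read-out is not stated. Concentration: 500 µM. Direction is inferred from retests: higher values go with more growth inhibition. Of about 18,000 compounds tested this way, about 900 (5%) reached 50% or more in at least one test.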
Mtb glucose medium: 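Whole-cell growth test on Mycobacterium tuberculosis, read after 3 days in glucose-containing 7H9 medium; the read-out is not stated. Concentration: 500 µM. The record gives no direction; compounds that gave an IC50 in retests scored well above the rest, so higher reads as more growth inhibition. Of about 18,000 compounds tested this way, about 1,400 (7.9%) reached 50% or more in at least one test.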

The filed quantity is “Percent Effect” (%). The controls that fix the scale are not given in the record; negative values are as filed. The compounds are a random part of those screened.

compound | Mtb cholesterol medium | Mtb glucose medium
CCNC(=O)CN(C)C(=O)COc1ccc(Cl)cc1 | -0.9244% | 13.45%
NC1CCCOc2cc(F)ccc21 (centres undefined) | 3.49% | 13.55%
CN1CCN(C(=O)c2cc3ccccc3o2)CC1 | 2.329% | 66.64%
N#CCCn1ccc(=O)[nH]c1=O | 15.39% | 6.092%
CN(C)C(CNC(=O)C1CC1)c1ccsc1 (centres undefined) | 11.72% | 8.235%
CCCn1cc(NC(=O)CS(=O)(=O)CCC)cn1 | 5.937% | 0.000860%
COC(CNC(=O)N1CCSCC1)c1ccc(F)cc1 (centres undefined) | 48.84% | 61.85%
Cc1ccc(CNCCCOc2ccccn2)o1 | 44.11% | 41.35%
c1ccc2ncc(N3CCNCC3)cc2c1 | 21.88% | 35.08%
CCC1CN(CCN)CCO1 (centres undefined) | -10.27% | -6.703%
CN(C)S(=O)(=O)c1cccc(Cn2cncn2)c1 | -7.454% | 15.7%
CCn1cncc1CN1CCC(NC(C)=O)CC1 | -3.787% | 0.3243%
CN1CC(CN)OC1=O (centres undefined) | 7.93% | 7.779%
Cc1c(C(C)N[C@@H]2C=C[C@H](CO)C2)cnn1C (some centres undefined) | 0.4105% | -2.087%
CC(=O)c1cc(C(=O)NCc2cn3c(n2)SCC3)cs1 | -2.747% | 14.95%
COc1cc(NC(=O)CCN2CC(O)C2)cc(OC)c1 | -28.17% | 5.153%
O=C(CN1CCC(O)CC1)N1CCc2sccc2C1 | -9.121% | -2.301%
CN(CC(N)=O)Cc1ncc(-c2ccccc2)o1 | 34.36% | 37.53%
CN1CCC(CNC(=O)Nc2ccccc2)C1 (centres undefined) | 11.91% | 22.14%
Cc1noc2ncnc(N3CCC4(CC3)OCCO4)c12 | -6.057% | 6.374%
CNC(C)c1ccncc1 (centres undefined) | 8.604% | 21.92%
CN(Cc1ccncc1)S(=O)(=O)c1cccs1 | 33.87% | 53.77%
Cc1c(C(=O)N2CCN(c3nccs3)CC2)cnn1C | -9.131% | 12.77%
COC(=O)[C@@H]1C[C@@H](O)CN1Cc1ccccc1N(C)C | 4.646% | -9.765%
CCN(Cc1ccccc1)C(=O)C1CCNCC1 | 18.3% | 37.87%
O=C(CCc1cc(Cl)no1)N1CCCC(O)(CO)C1 (centres undefined) | 5.838% | 20.63%
O=S(=O)(N1CCCCCC1)N1CCNCC1 | -0.8557% | 7.248%
CCS(=O)(=O)N(C)CC(=O)Nc1cc(C)on1 | 0.695% | 11.96%
Cc1cccc(OCCNS(C)(=O)=O)c1 | 23.21% | 32.67%
COCC(C)NS(=O)(=O)c1c(C)noc1C (centres undefined) | 6.929% | 10.52%
O=C(NCCCc1ccccn1)[C@]12CNC[C@H]1CNC2 | -5.471% | -1.72%
COc1ccc(C(C#N)N2CCNCC2)cc1 (centres undefined) | 0.8946% | 7.009%
COCCn1ccnc1CN1C[C@H](N(C)C)C[C@H]1CO | 1.796% | -5.023%
CNCC(O)c1cccc(Br)c1 (centres undefined) | 0.4203% | 20.78%
CN(C)C(CNC(=O)Nc1ccncc1)c1ccco1 (centres undefined) | -2.852% | 17.44%
Cc1ccnc(N2CCOCC2CCO)n1 (centres undefined) | -9.647% | 18.48%
O=C1OC2(CCNCC2)CN1Cc1ccc(Cl)s1 | 10.24% | 34.53%
CCN(CC)C(=O)CNc1ccc(Cl)c(C#N)n1 | -11.23% | 0.7009%
COC(=O)[C@@H]1C[C@@H](O)CN1CC(=O)N1CCCCCC1 | -2.164% | -3.892%
CCO[C@H]1CN(C(=O)c2nn(C)c(C)c2Cl)C[C@@H]1O | 10.08% | 1.471%
O=C(c1cc(-c2ccco2)on1)N1CCCO1 | 2.952% | 3.105%
Nc1nc(CCCNC(=O)CN2CCCC2)cs1 | 3.667% | 5.478%
CCCC(=O)N1C[C@@H](CO)[C@H](N(C)C)C1 | -12.25% | -9.479%
COC(=O)c1ccc(NCC(=O)NC(N)=O)cc1 | 91.23% | 83.3%
COc1cccc([C@H]2C[C@H](N)C2)c1 | 18.83% | 49.49%
Cc1cccc(CN2CCC(C(=O)N(C)C)CC2)c1 | 11.59% | 10.78%
Cc1cccc(-n2cc(CN)cn2)c1 | 40.27% | 44.26%
COCCCN(Cc1[nH]cnc1C)C1CCN(C)CC1 | -4.583% | 4.604%
O=C1CCC(=O)N1CCOc1cccc(F)c1 | 11.28% | 27.9%
CN(C)C(=O)c1ccc(S(=O)(=O)NC2CCCCC2)s1 | 13.64% | 29.44%
CCN(CCn1cccn1)C(=O)[C@H](N)c1ccccc1 | 11.32% | 14.38%
CCOc1cncc(NCc2ccncc2)n1 | 13.85% | 33.94%
COCCCNc1ccc(C(F)(F)F)cn1 | 2.212% | -5.247%
CN(C)c1ccc(NC(=O)CCc2cccnc2)cn1 | -946.6% | -499.9%
CNc1nnc(SCc2csc(CC(=O)N(C)C)n2)s1 | 0.0285% | 3.025%
CCCC(=O)Nc1ccc(S(=O)(=O)NCC)cc1 | 1.634% | 8.022%
Cn1cc(C(C)(O)CN)cn1 (centres undefined) | -7.288% | -11.07%
Cn1cc(NC(=O)NCCc2nccs2)cn1 | 6.164% | 12.83%
COC(=O)[C@@H]1CC(O)CN1S(=O)(=O)c1ccc(C)cc1 (some centres undefined) | -14.46% | 1.099%
O=C1CCCN1C1CCC(O)CC1 (centres undefined) | -4.858% | -3.747%
N#Cc1cccnc1N1CCCNCC1 | 44.63% | 53.09%
Cc1noc(C)c1S(=O)(=O)NC(C)c1cccnc1 (centres undefined) | -24.92% | -3.093%
CCOc1ccccc1NC(=O)NC1CCN(C)CC1 | 19.42% | 17.93%
Cn1cncc1CCNC(=O)C1CCCCO1 (centres undefined) | -5.387% | 2.824%
Cc1cccc(OCC(O)CNC(C)(C)CO)c1C (centres undefined) | 42.77% | 48.07%
COc1cc(Cl)ccc1CNC(=O)c1nccnc1N | -8.458% | -3.421%
Cc1nsc(N2CCN(CCS(C)(=O)=O)CC2)n1 | -3.793% | -2.468%
NS(=O)(=O)CCN1CCOC(c2ccccc2)C1 (centres undefined) | 2.921% | 8.583%

Some entries from above, unchanged:

* CCOc1ccccc1NC(=O)NC1CCN(C)CC1 | Mtb cholesterol medium: 19.42%; Mtb glucose medium: 17.93%
* CN(C)c1ccc(NC(=O)CCc2cccnc2)cn1 | Mtb cholesterol medium: -946.6%; Mtb glucose medium: -499.9%
* Cn1cc(NC(=O)NCCc2nccs2)cn1 | Mtb cholesterol medium: 6.164%; Mtb glucose medium: 12.83%
* Cc1c(C(=O)N2CCN(c3nccs3)CC2)cnn1C | Mtb cholesterol medium: -9.131%; Mtb glucose medium: 12.77%